Experimental data: PubChem BioAssay AID493014 (National Center for Advancing Translational Sciences (NCATS), 2011)
The other results are listed elsewhere or left out. Further columns of the screen follow, without active or inactive calls. Compounds called inactive in the main read-out are mostly missing here. Potencies come from curve fits of mixed quality, noted in brackets.

Assay: qHTS Assay to Find Inhibitors of Chronic Active B-Cell Receptor Signaling
Conditions: ABC-DLBCL IkBa-CBG/CBR reporter, luminescence ratio (green luciferase fused to IkBa over red control in TMD8 lymphoma cells), 4 h
Procedure, shortened: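 Compounds up to 46 uM were incubated four hours with TMD8 cells whose green CBG68 luciferase is fused to IkappaBalpha; red CBR luminescence normalised the signal, and concentration-effect curves were fitted to fusion, red and ratio data.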

[1] = measured here: CBR red luminescence, cell number
[2] = measured here: IkBa-CBG green luminescence

Row | Structure (SMILES) | AC50 [1] | AC50 [2]
1 | CCOc1ncccc1C(=O)Nc1ccc(Cl)c(S(=O)(=O)N2CCCC2)c1 | 3.16 µM [falling, partial curve, poor fit] | 0.631 µM [rising, full curve, poor fit]
2 | CCCCCCN1N=C(C)C(C(=O)c2ccc(Cl)cc2)C1=O (configuration not stated) | 20 µM [falling, single point] | –
3 | OCC1(Cc2cccc(F)c2)CCN(Cc2ccc3cccc(F)c3n2)CC1 | 35.5 µM [falling, single point] | –
4 | CCOc1ccccc1C1c2[nH]c3ccccc3c2C[C@H]2C(=O)N(C3CCN(Cc4ccccc4)CC3)CC(=O)N12 (some centres not stated) | 5.01 µM [falling, full curve, poor fit] | –
5 | COc1ccc([N+](=O)[O-])cc1NCc1ccccc1 | 6.51 µM [rising, full curve] | –
6 | CC(C)C(=O)Nc1nnc(CCN2CCCCC2)s1 | 32.6 µM [rising, single point] | –
7 | CCCN(CC(=O)Nc1ccccc1C)C(=O)C1CC(=O)N(c2ccc(CC)cc2)C1 (configuration not stated) | 0.411 µM [rising, partial curve, poor fit] | –
8 | C/C(=N/NC(=O)c1ccoc1C)c1cccc(NC(=O)C2CC2)c1 | 11.6 µM [falling, partial curve] | –
9 | Cc1ccc(NNC(=S)Nc2ccc(C(C)C)cc2)c(C)c1 | 0.366 µM [falling, full curve] | –
10 | O=C(Nc1ccc(Cl)cc1)N(C1=NCCC1)c1ccc(OC(F)F)cc1 | 0.794 µM [rising, full curve, poor fit] | –
11 | Cc1cccc(C(=O)Nc2ccc(N3CCN(c4ccc(C(F)(F)F)cn4)CC3)nc2)c1 | 31.6 µM [falling, single point] | –
12 | CCCc1nc2oc3ccccc3c(=O)c2c(=O)n1-c1ccc(C)cc1 | 1.78 µM [falling, full curve] | –
13 | COc1ccc(NC(=O)c2cc(SC)ccc2Cl)cc1 | 25.9 µM [falling, single point] | –
14 | COC(=O)c1sccc1NC(=O)Nc1ccc(OC)cc1 | 2.82 µM [falling, full curve] | –
15 | C=CCNC(=S)NNc1nc2c(c(=O)[nH]1)C1(CCCCC1)Cc1ccccc1-2 | 23.1 µM [falling, single point] | –
16 | COc1ccc(CNCC(O)(c2ccccc2)c2ccc(Cl)cc2)cc1 (configuration not stated) | 25.9 µM [falling, single point] | –
17 | CCC(=O)NCCCNc1nc2c(C)cccc2cc1C#N | 15.8 µM [falling, partial curve, poor fit] | –
18 | Cc1cccc(C)c1OCc1cc(C(=O)N2CCN(Cc3nccn3C)CC2)no1 | 0.0891 µM [rising, full curve, poor fit] | –
19 | COc1cc(CN2CCNC(=O)C2CC(=O)NCCc2ncccc2C)cc(OC)c1 (configuration not stated) | 3.16 µM [rising, single point] | –
20 | O=C(CSc1nc2ccccc2o1)Nc1nccs1 | 12.6 µM [falling, single point] | –
21 | CCOC(=O)c1ccccc1N/C=C/C(=O)c1cccs1 | 16.4 µM [falling, single point] | –

As entered above:
Entry for Cc1cccc(C(=O)Nc2ccc(N3CCN(c4ccc(C(F)(F)F)cn4)CC3)nc2)c1 under AC50 [1]: 31.6 µM [falling, single point]
Entry for Cc1ccc(NNC(=S)Nc2ccc(C(C)C)cc2)c(C)c1 under AC50 [1]: 0.366 µM [falling, full curve]

The listing continues.

Row | Structure (SMILES) | AC50 [1] | AC50 [2]
22 | Cc1ccc(NC(=O)CSc2nc3ccccc3c3nc(CCn4c(C)nc5ccccc54)nn23)cc1F | 15.8 µM [falling, single point] | –
23 | O=C(Nc1ccc2c(c1)OCO2)Nc1ccc(Cl)cc1Cl | 6.51 µM [rising, single point] | –
24 | COc1cc2c(cc1OC)C(c1ccccc1)N(C(=O)CCl)CC2 (configuration not stated) | 3.16 µM [falling, full curve, poor fit] | –
25 | C=CCn1c(Cc2cccs2)nnc1SCC(=O)c1ccc2ccccc2c1 | 7.31 µM [rising, partial curve, poor fit] | –
26 | COc1ccc(CN2CCC(Oc3ccc(C(=O)NCc4ccccn4)cc3)CC2)c(F)c1 | 4.47 µM [rising, partial curve, poor fit] | –
27 | O=C(CSc1ccccc1)NCc1ccco1 | 18.4 µM [rising, partial curve, poor fit] | –
28 | Cc1ccc(C#CC[N+]2(CC#Cc3ccc(C)cc3)CCCCC2)cc1 | 23.1 µM [falling, single point] | –
29 | COCCNC(=O)/C(C#N)=C/c1ccc(OCc2ccc(F)cc2)cc1 | 1.12 µM [falling, full curve, poor fit] | –
30 | O=C(O)c1ccc2[nH]c3c(c2c1)CSCC3 | 16.4 µM [falling, partial curve, poor fit] | –
31 | CCCc1nnc(NC(=O)c2nc(S(=O)(=O)Cc3ccc(C)cc3)ncc2Cl)s1 | 14.1 µM [falling, single point] | –
32 | Cc1ccccc1CN1CCN(C2CCC2)CC1CCO (configuration not stated) | 3.16 µM [rising, single point] | –
33 | Cc1ccc2c(C(=O)CN3CCC(C(N)=O)CC3)c(C)[nH]c2c1 | 11.2 µM [rising, partial curve, poor fit] | –
34 | COc1cccc(-c2sc3ccc(OC)cc3c2-c2cc(F)cc(OC)c2)c1 | 16.4 µM [rising, partial curve, poor fit] | –
35 | O=c1c2c3c(sc2nc2n1CCC2)CCCC3 | 0.398 µM [rising, partial curve, poor fit] | –
36 | CCN(CC)CCCCN1c2ccccc2Sc2ccccc21 | 35.5 µM [falling, single point] | –
37 | Cc1cc(C)c2c(=O)n(CC(=O)NC3CCCC3)sc2n1 | 3.16 µM [falling, partial curve, poor fit] | –
38 | COc1ccc(NC(=O)C(C/C=C(/C)Cl)C(C)=O)cc1 (configuration not stated) | 6.51 µM [falling, single point] | –
39 | Nc1nc(N)c2c(ccc3nccc32)[nH]1 | 7.08 µM [rising, partial curve, poor fit] | 11.2 µM [falling, partial curve, poor fit]
40 | CN(C)CCCN(C(=O)c1ccc(S(=O)(=O)N2CCCCC2)cc1)c1nc2cc3c(cc2s1)OCO3 | 35.5 µM [falling, single point] | –
41 | O=C(Nc1ccc(F)c(F)c1)C1CCCN(S(=O)(=O)c2cccc3nonc23)C1 (configuration not stated) | 35.5 µM [rising, partial curve, poor fit] | –
42 | CCOC(=O)c1cccc(-c2c(-c3ccccc3)ncc3cc(OC)c(OC)cc23)c1 | 18.4 µM [falling, partial curve] | –

Nos. 32–35 of the list above:
Row | Structure (SMILES) | AC50 [1] | AC50 [2]
32 | Cc1ccccc1CN1CCN(C2CCC2)CC1CCO (configuration not stated) | 3.16 µM [rising, single point] | –
33 | Cc1ccc2c(C(=O)CN3CCC(C(N)=O)CC3)c(C)[nH]c2c1 | 11.2 µM [rising, partial curve, poor fit] | –
34 | COc1cccc(-c2sc3ccc(OC)cc3c2-c2cc(F)cc(OC)c2)c1 | 16.4 µM [rising, partial curve, poor fit] | –
35 | O=c1c2c3c(sc2nc2n1CCC2)CCCC3 | 0.398 µM [rising, partial curve, poor fit] | –

Next records:

Row | Structure (SMILES) | AC50 [1] | AC50 [2]
43 | Cc1ccnc(SCC(=O)Nc2c(C)n(C)n(-c3ccccc3)c2=O)n1 | 0.259 µM [falling, full curve, poor fit] | –
44 | CCN1C/C(=C/c2ccc(N3CCOCC3)cc2)C(=O)/C(=C/c2ccc(N3CCOCC3)cc2)C1 | 1.46 µM [falling, partial curve, poor fit] | 29.1 µM [falling, single point]
45 | O=C(O)c1[nH]c2ccc(Cl)cc2c1CCN1C(=O)c2ccccc2C1=O | 35.5 µM [rising, single point] | –
46 | CCCC(=O)Nc1nc2c(OC)ccc(OC)c2s1 | 6.51 µM [falling, partial curve, poor fit] | –
47 | O=C(CSc1nnc(NC(=O)c2c(F)cccc2F)s1)Nc1ccc(F)cc1 | 0.794 µM [rising, full curve, poor fit] | –
48 | COC(=O)c1ccccc1NC(=O)c1ccc(-c2cccc(Cl)c2)o1 | 0.082 µM [falling, full curve] | –
49 | C=CCNC(=O)CSc1nnc(-c2ccc(S(=O)(=O)N3CCCC3)cc2)n1C | 15.8 µM [rising, partial curve, poor fit] | –
50 | CCn1c(SCc2nc3ccccc3c(=O)[nH]2)nnc1C(C)NC(=O)c1ccccc1 (configuration not stated) | 17.8 µM [falling, single point] | –
51 | CCOC(=O)c1c(NC(=O)CNC2CCCCC2)sc(C)c1C | 22.4 µM [falling, single point] | –
52 | C#CCNC(=O)C1=C[C@H](c2ccc(C(F)(F)F)cc2)C[C@H](OCc2ccc(CO)cc2)O1 | 2.82 µM [rising, partial curve, poor fit] | –
53 | C/C(=N/NC(=O)c1ccncc1)c1c[nH]c2ccccc12 | 35.5 µM [falling, single point] | –
54 | N#Cc1c(N)nc2c3c(sc(=N)c2c1N)NC(=O)CC3c1ccccc1 (configuration not stated) | 25.9 µM [rising, single point] | 29.1 µM [falling, single point]
55 | Clc1ccc(C2CSc3c4ncnc-4ncn32)cc1 (configuration not stated) | 5.62 µM [rising, full curve, poor fit] | –
56 | CC1=CC(C)(C)n2c(O)c(N=N)c3cc(C)cc1c32 | – | 3.66 µM [falling, partial curve, poor fit]
57 | COc1cccc(-c2nn(C)c3sc(C(=O)NCc4ccc5c(c4)OCO5)cc23)c1 | 15.8 µM [falling, single point] | –
58 | O=C(c1cc(COc2cccc(C(F)(F)F)c2)on1)N1CCC(c2ccncc2)CC1 | 14.1 µM [falling, single point] | –
59 | CCCC(=O)c1c(C)c2ccccc2n1C | 3.55 µM [rising, partial curve, poor fit] | –
60 | Cc1cc2nc3ccc(=[N+](C)C)cc-3sc2cc1N | 35.5 µM [falling, single point] | –
61 | Cc1cccc(CC2CC(=O)N(c3ccccc3)C2=O)c1 (configuration not stated) | 10.3 µM [rising, partial curve, poor fit] | –
62 | COc1ccccc1-[n+]1c(C)cc(/C=C2\Sc3ccccc3N2C)cc1C | 8.91 µM [falling, partial curve, poor fit] | –
63 | O=C(NC(O)C(=O)c1ccccc1)c1cccs1 (configuration not stated) | 14.6 µM [falling, partial curve, poor fit] | –
